Measurements taken from PMC8935233.

Chains of the proteins cited; added tags and fusions are not shown.
UniProt Q92786: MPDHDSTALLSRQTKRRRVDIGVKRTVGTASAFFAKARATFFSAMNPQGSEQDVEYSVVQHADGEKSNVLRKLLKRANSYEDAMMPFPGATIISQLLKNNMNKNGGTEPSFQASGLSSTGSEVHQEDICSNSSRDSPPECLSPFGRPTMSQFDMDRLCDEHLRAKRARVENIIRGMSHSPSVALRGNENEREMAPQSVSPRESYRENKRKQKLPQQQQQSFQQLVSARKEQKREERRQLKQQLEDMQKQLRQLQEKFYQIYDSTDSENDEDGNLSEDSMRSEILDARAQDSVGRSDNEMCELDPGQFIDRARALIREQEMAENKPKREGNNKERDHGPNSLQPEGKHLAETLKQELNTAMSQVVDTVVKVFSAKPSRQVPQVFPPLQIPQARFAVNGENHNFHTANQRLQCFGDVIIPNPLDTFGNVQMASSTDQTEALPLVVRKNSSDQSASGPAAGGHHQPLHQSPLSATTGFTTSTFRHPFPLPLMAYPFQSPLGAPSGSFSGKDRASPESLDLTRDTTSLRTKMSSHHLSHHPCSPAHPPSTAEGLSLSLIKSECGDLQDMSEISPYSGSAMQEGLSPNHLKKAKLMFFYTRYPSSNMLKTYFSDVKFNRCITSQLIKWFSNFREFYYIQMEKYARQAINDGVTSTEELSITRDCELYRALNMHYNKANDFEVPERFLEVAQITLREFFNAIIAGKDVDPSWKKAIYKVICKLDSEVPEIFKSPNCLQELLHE

Columns and labels:
[1] = target: PROX1 (Prospero-related homeobox 1) (human (endogenous in MDA-MB-231)) (UniProt Q92786); test: affinity purification with mass spectrometry; IP of PROX1 from MDA-MB-231 lysate and from lysate of PROX1-overexpressing MCF-7 (NP-40 lysis buffer: 20 mM Tris-HCl, 150 mM NaCl, 0.5% NP-40, 20% glycerol; protein A/G magnetic beads); eluates on 10% SDS-PAGE, trypsin, Orbitrap Elite LC-MS/MS
[2] = target: PROX1 (Prospero-related homeobox 1), overexpressed in MCF-7 (human) (UniProt Q92786); test: as above

With “Heterogeneous ribonucleoprotein K (hnRNPK) (from UniProt P61978 1-463)” the binding [1] was “binds” and the binding [2] was “binds”.

These are yes or no findings as the source states them, for the method shown. In cells and extracts the contact can be indirect. A yes stands for co-enrichment or nearness to the bait. Other partners may have been found.
